These are yes or no findings as the source states them, for the method shown. Binding seen in cells or lysates may run through a third protein. Here binding means that the protein was enriched with, or labelled near, the bait; the list need not be complete.
Molecular target: HA-USP7 (UniProt Q93009)
Assay: affinity purification with mass spectrometry; immunoprecipitation from HEK293T cells overexpressing HA-USP7, followed by mass spectrometry

Chains of the proteins cited; added tags and fusions are not shown.
UniProt Q93009: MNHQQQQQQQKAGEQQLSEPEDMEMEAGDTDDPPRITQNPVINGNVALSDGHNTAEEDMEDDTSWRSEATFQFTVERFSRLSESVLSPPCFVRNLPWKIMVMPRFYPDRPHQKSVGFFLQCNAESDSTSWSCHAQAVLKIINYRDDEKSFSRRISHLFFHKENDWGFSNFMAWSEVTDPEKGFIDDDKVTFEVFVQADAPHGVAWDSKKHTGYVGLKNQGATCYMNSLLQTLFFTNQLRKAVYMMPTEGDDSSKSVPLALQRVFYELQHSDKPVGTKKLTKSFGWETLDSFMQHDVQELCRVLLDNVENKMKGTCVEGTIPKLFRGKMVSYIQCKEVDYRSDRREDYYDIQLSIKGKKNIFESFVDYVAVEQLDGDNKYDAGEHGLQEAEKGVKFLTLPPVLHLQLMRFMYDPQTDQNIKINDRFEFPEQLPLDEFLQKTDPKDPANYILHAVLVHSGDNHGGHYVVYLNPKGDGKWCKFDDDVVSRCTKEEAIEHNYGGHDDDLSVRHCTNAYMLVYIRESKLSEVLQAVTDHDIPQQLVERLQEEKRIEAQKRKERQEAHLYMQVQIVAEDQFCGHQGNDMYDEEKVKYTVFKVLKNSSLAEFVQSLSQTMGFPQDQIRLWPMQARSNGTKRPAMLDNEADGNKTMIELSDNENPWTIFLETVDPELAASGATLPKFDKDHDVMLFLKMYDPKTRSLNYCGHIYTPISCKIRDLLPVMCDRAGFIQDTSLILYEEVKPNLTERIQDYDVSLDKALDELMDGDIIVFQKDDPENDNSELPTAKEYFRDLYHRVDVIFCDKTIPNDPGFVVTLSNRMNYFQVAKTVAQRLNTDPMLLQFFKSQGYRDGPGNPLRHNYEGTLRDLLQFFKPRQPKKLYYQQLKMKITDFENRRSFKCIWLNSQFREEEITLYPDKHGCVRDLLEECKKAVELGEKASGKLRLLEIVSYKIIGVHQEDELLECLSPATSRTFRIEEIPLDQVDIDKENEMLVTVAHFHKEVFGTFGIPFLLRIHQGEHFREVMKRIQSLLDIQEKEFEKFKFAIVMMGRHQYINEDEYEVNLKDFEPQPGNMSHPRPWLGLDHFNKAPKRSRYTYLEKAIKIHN
UniProt Q16665: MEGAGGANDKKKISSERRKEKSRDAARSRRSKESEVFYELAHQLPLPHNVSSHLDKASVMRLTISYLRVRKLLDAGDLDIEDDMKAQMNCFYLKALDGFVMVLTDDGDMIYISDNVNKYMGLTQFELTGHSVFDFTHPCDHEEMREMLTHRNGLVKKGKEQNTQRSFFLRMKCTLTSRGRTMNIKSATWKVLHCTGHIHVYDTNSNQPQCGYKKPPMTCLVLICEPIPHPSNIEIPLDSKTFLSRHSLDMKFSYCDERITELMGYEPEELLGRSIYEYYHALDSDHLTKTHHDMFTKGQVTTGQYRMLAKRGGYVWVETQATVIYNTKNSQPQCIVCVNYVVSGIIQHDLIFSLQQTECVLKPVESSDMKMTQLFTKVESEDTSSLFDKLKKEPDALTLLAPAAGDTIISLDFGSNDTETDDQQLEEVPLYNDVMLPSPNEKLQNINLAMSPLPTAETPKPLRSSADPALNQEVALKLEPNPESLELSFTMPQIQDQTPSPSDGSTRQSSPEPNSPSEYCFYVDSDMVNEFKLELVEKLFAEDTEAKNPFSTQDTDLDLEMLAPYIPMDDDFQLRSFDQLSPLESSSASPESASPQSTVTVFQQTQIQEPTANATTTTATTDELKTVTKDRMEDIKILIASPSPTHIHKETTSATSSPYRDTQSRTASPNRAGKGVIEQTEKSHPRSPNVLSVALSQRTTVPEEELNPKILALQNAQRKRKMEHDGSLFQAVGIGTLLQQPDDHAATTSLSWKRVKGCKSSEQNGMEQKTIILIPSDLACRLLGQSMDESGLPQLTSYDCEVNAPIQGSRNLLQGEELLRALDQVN

binding: binds
Substance: HIF-1α (endogenous, HEK293T) (from UniProt Q16665 1-826)
